Results are given in words; binding and its absence hold for the method and conditions named. Binding seen in cells or lysates may run through a third protein. Here binding means that the protein was enriched with, or labelled near, the bait; the list need not be complete.

Chains of the proteins cited; added tags and fusions are not shown.
UniProt Q99JF8: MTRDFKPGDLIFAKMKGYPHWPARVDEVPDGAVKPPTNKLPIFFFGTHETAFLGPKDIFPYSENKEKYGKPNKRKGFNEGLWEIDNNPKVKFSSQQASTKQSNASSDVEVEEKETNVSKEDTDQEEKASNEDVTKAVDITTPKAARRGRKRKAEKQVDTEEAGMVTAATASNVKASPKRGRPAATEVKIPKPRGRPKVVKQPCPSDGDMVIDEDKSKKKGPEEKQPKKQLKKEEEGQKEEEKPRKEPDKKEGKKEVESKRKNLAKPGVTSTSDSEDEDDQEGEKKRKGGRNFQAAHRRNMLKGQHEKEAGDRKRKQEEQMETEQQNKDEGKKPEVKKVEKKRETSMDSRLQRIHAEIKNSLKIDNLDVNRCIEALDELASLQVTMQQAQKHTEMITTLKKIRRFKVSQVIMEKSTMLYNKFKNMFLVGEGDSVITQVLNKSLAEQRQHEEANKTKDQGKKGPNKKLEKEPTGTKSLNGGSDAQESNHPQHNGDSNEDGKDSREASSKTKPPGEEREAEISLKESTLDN

In test [1] the target is PC4 and SF2 interacting protein (PSIP1/LEDGF), longer isoform p75, endogenous (mouse (endogenous in MEFs and mESCs)) (UniProt Q99JF8). In words: affinity purification with mass spectrometry; SILAC-IP-MS in MEFs: nuclear extracts in RIPA buffer with Benzonase; rabbit IgG (R0K0), anti-MOF (R6K4) and anti-PSIP/p75 (R10K8) on Protein A Dynabeads, 4°C 30 min, beads combined after the first wash; ratio over IgG.

For test [2] the target is unchanged. In words: affinity purification with mass spectrometry; SILAC-IP-MS in mESCs: nuclear extracts in RIPA buffer with Benzonase; rabbit IgG (R0K0), anti-MOF (R6K4) and anti-PSIP/p75 (R10K8) on Protein A Dynabeads, 4°C 30 min, beads combined after the first wash; ratio over IgG.

B1: Cell division cycle-associated 7-like (protein, UniProt Q922M5 1-438)
chain: MELATRSQIPKEVADIFSAPSDDEEFVGFQDDVPMQNLSESCGSLDSRELEKQQNVCFRSKYFTEELRRIFKEDTDSEMEDFEGFTESELNMSSNPELMESELSDSDKAYPVMNDAEEDDEEEAAPRRGRSTRRSSFGLRVAFQFPTKKLARTPDKDSSHLLDSKTDLRRKKSSRQPKGKEDSASDAEDESRAESQENSDALLKRAMNIKENKAMLAQLLAELNSVPDFFPVRTPPSASRRRTPRRAFSEGQITRRMNPTRSARPPEKFALENFTFSATKLTEELYSFRRRKTISGGKCQTYRRHRISSFRSVKDITEEDLENIAITVRDKVYDKVLGNTCHQCRQKTIDTKTVCRNQSCGGVRGQFCGPCLRNRYGEDVRTALLDPKWTCPPCRGICNCSYCRRRDGRCATGILIHLAKFYGYDNVKEYLESLQKQL
As for B1, the binding result in test [1] and in test [2] was “binds” throughout.

For the origin of these results see publication PMC8422350.
